Assay results from PubChem BioAssay AID330 (DTP/NCI, 2004).
The list shows only some results of the screen, not a fair sample: it is rich in T/C values a quarter to a half above the control, in often repeated tests (any T/C) and in doses without a T/C. Further doses and runs are listed elsewhere. T/C is the treated group as % of the vehicle group. Some doses have a count of surviving animals in place of a T/C: the source holds a T/C of zero for them, seemingly a mark for toxic or unscored doses. Some doses without a T/C left all or most animals alive at the check, yet need not have been tolerated: the source hardly ever lists a survival T/C far under the control, and the zero likely stands for such cases as well. Counts of survivors are from the toxicity check (mostly the fifth day) where no day follows; animals may have died later. Schedules are NCI's codes, taken here to give the interval after Q, in days (D) or hours (H), and the number of doses after X. Some structures stand for samples that the source files as different forms (salt, stereo form or complex); doses refer to the form tested. For survival time, the PubChem record calls one and a half times the control and up active, and a quarter to a half above the control has no call in these data; cut-offs in other NCI protocols can differ. Some T/C values are followed by the survivors on the day toxicity was checked, most often the fifth; without a count, all were alive then.

System: P388 leukemia ip, CD2F1 mice, survival T/C
Test: NCI In Vivo Anticancer Drug Screen. Data for tumor model P388 Leukemia (intraperitoneal) in CD2F1 (CDF1) mice
Details: T/C endpoint: median survival time, higher T/C = longer survival
[1] = dose: 200.0 mg/kg/injection, schedule: Q01DX009 (ip), vehicle: water

With `O=C(O)c1c2c(nc3ccccc13)Cc1ccccc1-2` the T/C (dose: 50.0 mg/kg/injection, schedule: Q01DX009 (ip), vehicle: Klucel (hydroxypropylcellulose) (HPC), evaluated on day 30) was 132 % of control, the T/C (dose: 50.0 mg/kg/injection, schedule: Q01DX009 (ip), vehicle: Klucel (hydroxypropylcellulose) (HPC), evaluated on day 60) was 133 % of control and the T/C (dose: 50.0 mg/kg/injection, schedule: Q01DX009 (ip), vehicle: water) was 130 % of control. For the same compound, the T/C (dose: 100.0 mg/kg/injection, schedule: Q01DX009 (ip), vehicle: water) was 138 % of control, the T/C (dose: 200.0 mg/kg/injection, schedule: Q01DX009 (ip), vehicle: saline with Tween-80) was 125 % of control [5 of 6 alive] and the T/C [1] was 135 % of control. The survivor count [1] was 2 of 6, the survivor count (dose: 300.0 mg/kg/injection, schedule: Q01DX009 (ip), vehicle: Klucel (hydroxypropylcellulose) (HPC)) was 0 of 6 and the survivor count (dose: 300.0 mg/kg/injection, schedule: Q01DX009 (ip), vehicle: saline with Tween-80) was 0 of 6. For the same compound, the survivor count (dose: 400.0 mg/kg/injection, schedule: Q01DX009 (ip), vehicle: water) was 1 of 6.

For `c1ccc2c(c1)C[n+]1ccc3ccccc3c1-c1c3ccccc3cc[n+]1C2`, the survivor count (dose: 50.0 mg/kg/injection, schedule: Q01DX001 (ip), vehicle: saline) was 5 of 6.

In the case of `O=C(CNNC(=O)OCc1ccccc1)OCc1ccccc1`, the survivor count (dose: 200.0 mg/kg/injection, schedule: Q01DX009 (ip), vehicle: other) is reported as 5 of 6.

`C[CH2][Sn]([Cl])([CH2]C)[O][Sn]([CH2]C)([CH2]C)[O][Sn]([Cl])([CH2]C)[CH2]C` was tested, and the T/C (dose: 3.12 mg/kg/injection, schedule: Q01DX005 (ip), vehicle: Klucel (hydroxypropylcellulose) (HPC)) was 125 % of control, the T/C (dose: 12.5 mg/kg/injection, schedule: Q01DX005 (ip), vehicle: Klucel (hydroxypropylcellulose) (HPC)) was 126 % of control [5 of 6 alive] and the survivor count (dose: 25.0 mg/kg/injection, schedule: Q01DX005 (ip), vehicle: Klucel (hydroxypropylcellulose) (HPC)) was 0 of 6. For the same compound, the survivor count (dose: 50.0 mg/kg/injection, schedule: Q01DX005 (ip), vehicle: Klucel (hydroxypropylcellulose) (HPC)) was 0 of 6, the survivor count (dose: 100.0 mg/kg/injection, schedule: Q01DX005 (ip), vehicle: Klucel (hydroxypropylcellulose) (HPC)) was 0 of 6 and the survivor count (dose: 200.0 mg/kg/injection, schedule: Q01DX005 (ip), vehicle: Klucel (hydroxypropylcellulose) (HPC)) was 0 of 6.

In the case of `c1ccc(-c2ccc(NCCN3CCOCC3)nn2)cc1`, the survivor count (dose: 240.0 mg/kg/injection, schedule: Q01DX005 (ip), vehicle: Klucel (hydroxypropylcellulose) (HPC)) is reported as 6 of 6.
